Publication PMC4795683
These are yes or no findings as the source states them, for the method shown. Binding seen in cells or lysates may run through a third protein. Some entries that bind do so weakly or less than the wild type. For part of these data: Tags and fused reporters may be left off the sequences shown. Values belong to the binder of their own block, whether it stands above or below them.

Legend:
Cuf2-TAP (S. pombe) = target: T1, Cuf2-TAP (S. pombe) (UniProt O94588); test: co-IP; TAP pull-down: whole-cell extracts (10 mg protein) of vegetative S. pombe cells, Mei4-GFP induced 18 h without thiamine, mixed with IgG Sepharose 6 Fast-Flow beads 2 h at 4°C; lysis buffer 10 mM Tris-HCl pH 7.9, 0.1% Triton X-100, 0.5 mM EDTA, 20% glycerol, 100 mM NaCl; bound proteins blotted with anti-GFP, anti-IgG and anti-α-tubulin
T1 sequence: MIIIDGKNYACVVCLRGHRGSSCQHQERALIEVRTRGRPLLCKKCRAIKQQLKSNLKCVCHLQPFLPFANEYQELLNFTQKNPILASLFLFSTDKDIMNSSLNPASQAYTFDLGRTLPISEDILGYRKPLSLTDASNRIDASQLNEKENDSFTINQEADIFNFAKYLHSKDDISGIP

Cuf2-VN (S. pombe) = target: T2, Cuf2-VN (S. pombe) (UniProt O94588); test: split reporter; BiFC with Venus fragments VN and VC in living vegetative S. pombe cells, 18 h in thiamine-free EMM; fluorescence microscopy
T2 sequence: T1 sequence

Mei4-VC (S. pombe) = target: T3, Mei4-VC (S. pombe) (UniProt O13606); test: as above
T3 sequence: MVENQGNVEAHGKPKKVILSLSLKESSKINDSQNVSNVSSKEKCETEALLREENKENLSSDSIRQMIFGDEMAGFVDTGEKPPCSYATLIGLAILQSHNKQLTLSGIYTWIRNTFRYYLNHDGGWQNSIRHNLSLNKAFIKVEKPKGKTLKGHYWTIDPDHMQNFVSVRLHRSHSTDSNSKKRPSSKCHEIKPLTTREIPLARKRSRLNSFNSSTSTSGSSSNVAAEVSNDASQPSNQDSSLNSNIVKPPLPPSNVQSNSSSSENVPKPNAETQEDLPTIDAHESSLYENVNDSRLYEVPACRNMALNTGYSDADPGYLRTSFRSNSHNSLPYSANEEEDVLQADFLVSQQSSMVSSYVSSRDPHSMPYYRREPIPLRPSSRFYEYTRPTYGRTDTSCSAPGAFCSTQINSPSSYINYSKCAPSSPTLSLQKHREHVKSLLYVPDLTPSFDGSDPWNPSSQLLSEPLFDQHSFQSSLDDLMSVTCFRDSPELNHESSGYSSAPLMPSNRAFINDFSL

- binding (Cuf2-TAP (S. pombe)): binds
B1: Mei4-GFP (protein, UniProt O13606 1-517)
chain: T3 sequence

- binding (Cuf2-VN (S. pombe)): binds
B2: Mei4-VC (protein, UniProt O13606 1-517)
chain: T3 sequence

- binding (Mei4-VC (S. pombe)): no binding
B3: VN-Fep1 (protein, UniProt Q10134 1-564)
chain: MAAKPAPFGQSCSNCHKTTTSLWRRGPDNSLLCNACGLYQKHRKHARPVKSEDLKDISPLIQQVCKNGTCAGDGFCNGTGGSASCTGCPALNNRIRSLNASKSQSGRKSLSPNPSSVPSSTETKASPTPLESKPQIVSDTTTETSNGTSRRRSSHNQHEDSSPPHEPSVTFCQNCATTNTPLWRRDESGNPICNACGLYYKIHGVHRPVTMKKAIIKRRKRLVFNGNANESQHNLKRMSSGDSGSSVKQQSTRDGPFSKSFPNGNGHASGNSGEGLAEHGMNTGVLPPASTFPSYNSNFTGFLPSSFNPSPLMTLSRLAAGEPDNNGKVYYSYGPTQEQSILPLPENKHEGLPPYQNEYVPNGIRANQVVYPGQLVAVGNDSSKQLSESTTSNTDNNGVATANQSNPLGMKFHLPPILPVGESVCLPPRTSAKPRIAEGIASLLNPEEPPSNSDKQPSMSNGPKSEVSPSQSQQAPLIQSSTSPVSLQFPPEVQGSNVDKRNYALNVLSQLRSQHDLMIQELHNLNQHIQQIDEWLRSSDNENMASEHIKSSTPAVVASGALQT
